Experimental data taken from PMC5382584, “In search of tail-anchored protein machinery in plants: reevaluating the role of arsenite transporters” (Scientific Reports, 2017).
No constants are given. Whether binding was seen depends on the method and setting. For part of these data: Binding seen in cells or lysates may run through a third protein. Some results given as binding are weak or reduced against the parent protein; the word gives no strength. Tags and fused reporters may be left off the sequences shown. Values belong to the binder of their own block, whether it stands above or below them.

The chains behind the UniProt entries cited, without tags or fusion partners.
UniProt P60468: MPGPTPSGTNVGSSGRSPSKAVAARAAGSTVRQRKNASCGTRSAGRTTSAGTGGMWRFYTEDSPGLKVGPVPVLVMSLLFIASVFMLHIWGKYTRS

Experiments:
[1] = target: T1, Cr-TOC34-NTC domain (NTC region of TOC34) with a C-terminal His-tag (C. reinhardtii); assay: pull-down; co-expression in E. coli BL21 (DE3) of untagged ArsA protein (pET21) with C-terminally His-tagged TA protein (pET28); IMAC (Ni-NTA) co-purification from the soluble lysate, washes with 50 and 100 mM imidazole, elution with 250 mM imidazole, SDS-PAGE; bands confirmed by mass spectrometry for Cr-ArsA1/Cr-TOC34-NTC
T1 sequence: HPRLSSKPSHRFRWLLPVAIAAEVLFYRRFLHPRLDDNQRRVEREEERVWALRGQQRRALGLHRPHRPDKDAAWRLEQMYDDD

[2] = target: Cr-ArsA1 (C. reinhardtii ArsA1), recombinant, purified after cleavage from GST (C. reinhardtii) (UniProt A8JGB0); assay: SEC; preparative size-exclusion chromatography of the purified protein, Superdex-200-16/600GL column; oligomeric state from peak positions; both purified
[3] = target: full length human Sec61β with a C-terminal 6xHis-tag (human) (UniProt P60468); assay: pull-down; co-expression in E. coli BL21 (DE3) of untagged ArsA protein (pET21) with C-terminally His-tagged TA protein (pET28); IMAC (Ni-NTA) co-purification from the soluble lysate, washes with 50 and 100 mM imidazole, elution with 250 mM imidazole, SDS-PAGE; bands confirmed by mass spectrometry for Cr-ArsA1/Cr-TOC34-NTC

binding [1]: binds
B1: native Cr-ArsA1, co-expressed without tag (protein, UniProt A8JGB0 1-777)
chain: MALASGNRLGSARGQTCADASGRVAPRLLSRACSGSPLALGVLACLGAASSVKPHPRLPATTSAASAPLPARGPAPCAAVPTVVTPDNATGVFEELAAGQQRKYIMISGKGGVGKTSLSASLAVKLAAAGHTTLVVSTDPAHSLSDSLAQDVSGGRPVLLQGTDLPLWGLEIDPEEAKREFFEGSGAGQDGEAGGPSAASQVSDFMNRMGMGFVIDQLKELKLGELLNTPPPGLDEAVAIAKVVQFVQAAEYARFSRIVFDTAPTGHTLRLLALPDFVDASLAKVIRLRKKLNGATSVVRGLFGAGESQDEAVEKLELLQQRVRMVKALFRDKTQTEFIIATIPTYLGVNESSRLLQALRAEQIPCKRIIVNQIVGPQQGDAYLRMKMKDQIAALEMVANDPGLRPLRKVIAPMVDVEVRGVPALSYFGNVVWKDVYDQMNQGADRKFFLLGGKGGVGKTSCSSSLAVHFANDGLPTLVVSTDPAHSLSDAFDQDLSGGSPVKITSPLGDELPLWGLQLDPEQAKAELRAVLADDGGKKLNETLDGLGLGVISDQLKDLQLGELLDTPPPGVDEAIAIAKVVQFLKAPEYSHFKRIVFDTAPTGHTLRLLSLPDFLDASIGKLVRLRQKLSAATSAVKNLFSGGQPGEEDVAVKRLEALQASMEDAKAMFRNQQTTEFIIVTIPTVMATAESCRLASALQHEGIPLKTIIVNQVVQANATDKFLTARRADQARALHHLEEDTGPDGLASLQLIKAPLCDLEVRGVPALSYFGNVVWK

binding [2]: no binding
B2: Cr-ArsA1 (C. reinhardtii ArsA1), recombinant, purified after cleavage from GST (protein, UniProt A8JGB0 1-777)
chain: MALASGNRLGSARGQTCADASGRVAPRLLSRACSGSPLALGVLACLGAASSVKPHPRLPATTSAASAPLPARGPAPCAAVPTVVTPDNATGVFEELAAGQQRKYIMISGKGGVGKTSLSASLAVKLAAAGHTTLVVSTDPAHSLSDSLAQDVSGGRPVLLQGTDLPLWGLEIDPEEAKREFFEGSGAGQDGEAGGPSAASQVSDFMNRMGMGFVIDQLKELKLGELLNTPPPGLDEAVAIAKVVQFVQAAEYARFSRIVFDTAPTGHTLRLLALPDFVDASLAKVIRLRKKLNGATSVVRGLFGAGESQDEAVEKLELLQQRVRMVKALFRDKTQTEFIIATIPTYLGVNESSRLLQALRAEQIPCKRIIVNQIVGPQQGDAYLRMKMKDQIAALEMVANDPGLRPLRKVIAPMVDVEVRGVPALSYFGNVVWKDVYDQMNQGADRKFFLLGGKGGVGKTSCSSSLAVHFANDGLPTLVVSTDPAHSLSDAFDQDLSGGSPVKITSPLGDELPLWGLQLDPEQAKAELRAVLADDGGKKLNETLDGLGLGVISDQLKDLQLGELLDTPPPGVDEAIAIAKVVQFLKAPEYSHFKRIVFDTAPTGHTLRLLSLPDFLDASIGKLVRLRQKLSAATSAVKNLFSGGQPGEEDVAVKRLEALQASMEDAKAMFRNQQTTEFIIVTIPTVMATAESCRLASALQHEGIPLKTIIVNQVVQANATDKFLTARRADQARALHHLEEDTGPDGLASLQLIKAPLCDLEVRGVPALSYFGNVVWK

binding [3]: binds
B3: Cr-ArsA2 (C. reinhardtii ArsA2), recombinant, purified (natural protein, UniProt A8IXB8 1-362, looked up)
chain: MAADMPDPTLQNVVDQKELKWIFVGGKGGVGKTTTSSSLAVALAESGTRNRVLIISTDPAHNLSDAFRQKFTKTPTLVNGFTNLFAMEVDPQPDIGEMEQLEWAQDSFLTELAGSIPGIDEAMSFAEVMKQVQTMDYDTIVFDTAPTGHTLRLLNFPTILEKGLSKLVALKGAMGGMMGQVTRMLGGMAGGGEGAADLPDQLLGKVEGMLDVVRKVSAQFKDPLLTTFVAVCIPEFLSLYETERLVQELAKFEIDCRNIVINQIIFPESVGGSRLLDARVRMQQKYLDQFYELYEDFHILQLPLLEEEVRGPEALKAFAVNLLKPYVPAPPTDAAARQAALVSEVAALKKRVAELEAALAKK
notes: ArsA2 of Chlamydomonas reinhardtii, full-length open reading frame, one ATPase domain; pET21 modified with a TEV site between the N-terminal 6His-tag and the polylinker; Seen as dimers and tetramers; also called Dimeric Cr-ArsA2; arsenite transporter ArsA2; source: E. coli BL21 (DE3), purified (Ni-NTA, size-exclusion chromatography)
